Results of single-concentration screens

Each number is a percent effect as filed.
The controls that fix the scale are not given in the record; negative values are as filed.
Compounds were drawn at random from those tested, without regard to their results.
Two or more numbers in one place are separate tests of the same structure; such repeats can differ widely.

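Phenotypic screen: M. tuberculosis growth, cholesterol and DPPC medium, 4 days; the read-out is not stated. Concentration: 50 µM. The record gives no direction; compounds that gave an IC50 in retests scored well above the rest, so higher reads as more growth inhibition. About 69,000 compounds were tested under these conditions; 0.54% (about 370) showed 50% or more at least once.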

Compound | percent effect
O=C1COc2cc(C(=O)NCc3ccc(Cl)s3)ccc2N1 | 16.86%
CC(=O)Nc1nc(CN(C)C2CCCN(c3cccnn3)C2)cs1 (stereo not given) | -23.83%
COc1c(C)cnc(CN(C)C(=O)c2cccnc2N(C)C)c1C | -13.41%
O=C(CN1CCCC(c2ccn[nH]2)C1)Nc1nc2c(s1)CCCC2 (stereo not given) | 16.25%
CCS(=O)(=O)N1Cc2c(Cn3ccnc3)nn(C)c2C1 | -37.79%
Cc1cccc(O[C@H]2COCCN(C3CCC3)C2)n1 | -10.24%
Cn1cc(C(=O)N2CCCN(c3cccnn3)CC2)c2ccccc21 | -16.4%
Cn1cncc1CN1CCCC1c1cncc(Oc2ccc(F)cc2)n1 (stereo not given) | 24.11%
C[C@@H]1CN(C(=O)C2(Cn3cccn3)CC2)CC[C@@]1(O)C1CC1 | -5.646%
CN1CCN(C(=O)C2CCCc3[nH]ncc32)CC1 (stereo not given) | -6.471%
CCc1noc(CN(CCS(C)(=O)=O)C(C)(C)C)n1 | -13.39%
CN(C)c1ccc(C(=O)N2CCCC(n3cccn3)C2)nn1 (stereo not given) | -8.486%
CCc1nc(C(=O)N2CCCC2)nn1-c1ccccc1Cl | -4.589%
O=C(CCc1nccs1)N1CCN(c2cccnn2)CC1 | 0.4242%
COC(=O)[C@@H]1Cc2c[nH]c3cccc(c23)[C@H](CC(C)C)N1 | -8.03%
Cn1nnn(-c2ccc(NS(=O)(=O)c3ccc(Br)cc3)cc2)c1=O | 5.973%
CC(C)(C)N1CCN(C(=O)Nc2cc(C(F)(F)F)c[nH]c2=O)CC1 | -21.71%
CC(C)c1nc(CN2CCc3onc(-c4cccc(F)c4)c3C2)no1 | 10.03%
[H][C@]12CN(CC(C)C)C(=O)[C@@]1([H])CN(S(=O)(=O)c1cccs1)C2 | 5.749%
FC(F)(F)Sc1ccccc1NCc1nc(C2CC2)no1 | 47.01%
[H][C@]12CN(c3ncc(CC)cn3)C[C@@]1([H])S(=O)(=O)CC[C@@H]2C(=O)NC(C)C | 9.195%
CC(=O)N1CCCc2cc(Nc3nccn(C)c3=O)ccc21 | -3.641%
COC(=O)c1ccc(S(=O)(=O)N2CCCn3ncnc32)s1 | -12.3% and -14.67%
CC(C)c1nc(NC(=O)CCCn2cccc2)n(C)n1 | -4.006%
COc1ccc(C(=O)NCC(c2cccn2C)N2CCCC2)cc1OC (stereo not given) | -26.22%
COC(=O)NCCCC(=O)NC1(c2cccc(Cl)c2)CC1 | -10.86%
Cc1ncsc1-c1nnc(C2CCN(Cc3cccc(F)c3F)CC2)o1 | -57.76%
CCN(C)C(=O)[C@H]1C[C@@](CC(C)C)(C(=O)OC)N(C)[C@H]1c1cccnc1 | -15.91%
CCCNC(=O)c1cc(C(C)C)nc(N2CCCC2)n1 | 28.03%
O=C(c1nnn(-c2ccc(C(F)(F)F)cc2)n1)N1CC(O)C1 | 6.863%
COCCNC(=O)c1cc(COc2cncc(Cl)c2)on1 | 2.815% and 3.489%
O=C1CCC2(CCN(S(=O)(=O)c3ccccc3)CC2)N1CC1CC1 | 30.49%
O=C(NCCc1cccnc1)Nc1cc(C(F)(F)F)c[nH]c1=O | 11.32%
CN(C)C(=O)N1CC2(CCOCC2)c2cc(NS(=O)(=O)C3CC3)ccc21 | -19.14%
Cn1cc(CN2CCC3(CCN(c4cnn(C)c4)C3=O)C2)cn1.O=C(O)C(F)(F)F (stereo not given) | 1.639%
O=C1CCCN1CCc1noc(-c2ccc3[nH]cnc3c2)n1 | -15.4% and 0.2262%
CCOC(=O)N1CCN(C(=O)CCn2cccc2)CC1 | -8.087%
O=C(CCn1cccn1)NCCOc1ccc2c(c1)OCO2 | -6.863%
O=C(O)C(F)(F)F.[H][C@]12CCC[C@@]1(COCc1ccncc1)CN(C(=O)c1ncccn1)C2 | 1.304%
[H][C@@]12CCN(C(=O)c3ccc(S(=O)(=O)NCC(F)F)cc3)[C@]1([H])CNC2 | 0.05183%
O=C(CSC1CCc2ccccc2NC1=O)NCc1cccs1 (stereo not given) | -7.835%
COCCN(C(=O)c1cnccn1)c1nc2c(s1)CCc1c-2cnn1C | 0.5384%
CN(C)S(=O)(=O)N1CCCC(c2nccnc2-c2cccc(Cl)c2)C1 (stereo not given) | -4.609% and 10.91%
Cc1cc(=O)[nH]c(-n2nc(C)c(CCC(=O)NCC(C)C)c2C)n1 | 7.109%
O=C(c1cc[nH]n1)N1CCCC1c1cc(Nc2ccccn2)n[nH]1 (stereo not given) | 10.24%
Cl.NC(=O)C1CNCCN1C(=O)COc1ccccc1 (stereo not given) | 11.15%
Cc1nc(C)n(CC2CCCN(Cc3cn4c(C)cccc4n3)C2)n1 (stereo not given) | 19.4%
N[C@H]1CN(C(=O)CCC(F)(F)F)C[C@@H]1c1ccccc1 | 9.877%
Cc1ccc(Sc2ccc(N3CCCC(C(=O)O)C3)nn2)cc1 (stereo not given) | 9.899%
CN1CCN2CCN(C(=O)c3cc4ncc(CCO)cn4n3)CC2C1 (stereo not given) | -5.222%
CO[C@@H]1CCC[C@@H](NC(=O)C(C)(C)c2cccc(F)c2)[C@H]1O | 2.247% and -14.7%
CNc1nc(C)cc(NCc2cc(C)cc3c(C)c(C)[nH]c23)n1 | 57.81%
O=C(O)c1nnn(Cc2cccc(C(F)(F)F)c2)c1-c1cccnc1 | -29.25%
CCc1oc(C(=O)N[C@@H]2c3ccccc3C[C@@H]2O)cc1C | 1.224%
O=C(O)C(F)(F)F.O=C(c1cnccn1)N1CCCC2(CCN(Cc3ccc(F)cc3)C2)C1 (stereo not given) | -6.893%
COCCN1CCC2(COCCN(C(=O)Cc3cccs3)C2)C1.O=C(O)C(F)(F)F (stereo not given) | -1.231%
C=Cn1cc(CN2CCN(CC3(c4ccccc4)CC3)CC2)c(C)n1 | 8.717% and -3.161%
Cc1nc(-c2ccccc2)ccc1C(=O)N1CCN(CCO)CC1 | 5.218%
[H][C@]12CCN(c3ncc(CC)cn3)C[C@@]1([H])OCCN(C(C)=O)C2 | 0.427%

For reference, 6 entries once more:

Compound,percent effect
FC(F)(F)Sc1ccccc1NCc1nc(C2CC2)no1,47.01%
Cc1nc(C)n(CC2CCCN(Cc3cn4c(C)cccc4n3)C2)n1 (stereo not given),19.4%
O=C1CCC2(CCN(S(=O)(=O)c3ccccc3)CC2)N1CC1CC1,30.49%
CC(=O)Nc1nc(CN(C)C2CCCN(c3cccnn3)C2)cs1 (stereo not given),-23.83%
CC(=O)N1CCCc2cc(Nc3nccn(C)c3=O)ccc21,-3.641%
CCCNC(=O)c1cc(C(C)C)nc(N2CCCC2)n1,28.03%

Measurements from “University of Dundee, Small-Polar-MMV Screening Library” (2021), ChEMBL document CHEMBL3988442.